Source: doi:10.1101/2020.02.13.946640 (bioRxiv, 2020)

Molecular target: c subunit of Thermus thermophilus V/A-ATPase, His3-tagged (Thermus thermophilus) (UniProt Q5SIT7)
Assay: cryo-EM structure

binding: binds
B1: a subunit of Thermus thermophilus V/A-ATPase (protein, UniProt Q5SIT6 1-652)
chain: MIAPMEKLVLAGPKGRAKELLQSLQQAGVVHLETLRPEALSAYQLSPEERAELRRWEAVSAGAEHTLSLLGLEAEPARPFPEGLEAAEKALSPIQAHAEGLTRQKQELEEELALAQAYLEPLERLAALAHGLDKSPFLRVIPFLLTEKELPLVEEALRKALEDRYLLAHEAYAGGVAALVVVHRKEVDQAKAALSRAGVAELRLPGALGELPLSEAARRLKERAEAAPRELSEVRQHLAKLARESASTLQSLWTRAQDEVARLKALEELASGRFGFALLGYVPVKAKPKVEEALARHKESVVYAFEPVDEHHEADRIPVVLDNPPWAKPFELLVSFLNTPKYGTFDPTPVVPVFFPFWFGMIVGDIGYALLFYLVGRWLSGYVKRNEPLVIDLFALKLKPQVIGKLVHILNWMVFWTVVWGVIYGEFFGTFLEHLGVFGTPEHPGLIPILIHRIDTAKTANLLILLSVAFGVVLVFFGLALRAYLGLKHRHMAHFWEGVGYLGGLVGVLALAASYLGNLQAGWLQGLMYLGFGVFLLAVLMSRIWLMIPEIFTQAGHILSHIRIYAVGAAGGILAGLLTDVGFALAERLGLLGVLLGLLVAGVLHLLILLLTTLGHMLQPIRLLWVEFFTKFGFYEENGRPYRPFKSVREAQ

These are yes or no findings as the source states them, for the method shown. Binding can be weak; no strength is given.
